According to patent US20070020269A1 (published 2007):
Results are given in words; binding and its absence hold for the method and conditions named. Where a sequence is shown, tags or fusion partners need not be part of it.

How the values were obtained:
Assay in all cases: yeast two-hybrid
cyclin A = target: cyclin A
cyclin G = target: cyclin G
cyclin B = target: cyclin B

Measured: binding

B1: RX50 bait (RX50 gene in modified fusion plasmid pGBKT7, Gal4 yeast two-hybrid system) (enzyme, not shown: large carriers)
chain: MHGYFGCNAAAEPGYSAFVGTPQICVTKFSTRNCQGMDSVIKPLDTIPEDKKVRVQRTQSTFDPFEKPANQVKRVHSENNACINFKTSSTGKESPKVRRHSSPSSPTSPKFGKADSYEKLEKLGEGSYAYVYKGKSKVNGKLVALKVIRLQEEEGTPFTAIREASIIKGLKHANIVLLHDIIHTKETLTLVFEYYHTDLCQYMDKHPGGLHPDNVKLFLFQLLRGLSYIHQRYILHRDLKPGNLLISDTGELKLADFGLAKAKSVPSHTTSNEVVYLWYRPPDVLLGSTEYSTCLDMWGVGCIFVEMIQGVAAFPGMKDIQDQLERIFLVLGTPNEDTWPGVHSLPHFKPERFTLYSSKNLRQAWNKLSYVNHAEDLASKLLQCSPKNRLSAQAALSHEYFSDLPPRLWELTDMSSIFTVPNVRLQPEAGESMRAFGKNNSYGKSLSNSKH
no binding: all assays above
